According to publication PMC8191757, “m6A RNA methylation of major satellite repeat transcripts facilitates chromatin association and RNA:DNA hybrid formation in mouse heterochromatin”:
Construct, isoform or probe ends are uncertain for at least one entry. No signal at the amounts used counts as a negative. At least one verdict rests on a figure or table, not on a statement of the authors. Protein sequences can lack the tags named with them.

Biological target: T1, NLS-HBD(H1)-eGFP (mouse) (UniProt O70338)
T1 sequence (looked up): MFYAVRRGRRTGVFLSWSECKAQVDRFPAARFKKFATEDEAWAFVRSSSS
Test: EMSA
Settings: EMSA: 20 nM hybrid, 125 nM-0.5 uM protein, 20 mM Tris-HCl pH 8.0, 150 mM NaCl, 5 mM MgCl2, 12.5% glycerol, 0.05% Triton X-100, 1 mM DTT, 1 h at 4 C, recombinant protein, residues 27-76

Row | Sequence | binding result (data not shown) | binding result (label: 5'-Cy5, DNA:RNA hybrid)
1 | GAAAUAUGGCGAGGAAAACUGAAAAAGGUGGAAAA / UUUUCCACCUUUUUCAGUUUUCCUCGCCAUAUUUC [MSR SR2 dsRNA] | no binding | 
2 | TTTTCCACCTTTTTCAGTTTTCCTCGCCATATTTC (double strand) [MSR SR2 dsDNA] | no binding | 
3 | UUUUCCACCUUUUUCAGUUUUCCUCGCCAUAUUUC / GAAATATGGCGAGGAAAACTGAAAAAGGTGGAAAA [MSR SR2 RNA:DNA hybrid (RR/DF), unmodified] |  | binds
